This is one part of the list. Residues, ends and D or L forms follow the SMILES beside them. *: point of attachment. Cbz = O=C(OCc1ccccc1)*
What was measured:
Assay in all cases: log2 fold change, soluble protein after heating vs DMSO (PISA); higher = thermal stabilisation; K562 cells, 10 uM, 30 min; active = over 0.2 and 3.5 SD of the protein, either way, in both replicates (recomputed)
IRAK-1-4 Inhibitor I = compound: C1COCCN1CCN2C3=CC=CC=C3N=C2NC(=O)C4=CC(=CC=C4)[N+](=O)[O-] [IRAK-1-4 Inhibitor I]
Procedure, shortened: (§1)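 Aliquots of K562 cells (2×10^6 cells/mL) treated with 10 μM compound for 30 min were heated for 3 min over 48°C-58°C. After pooling and extraction in PBS with 0.5% NP-40 at 4°C, soluble protein from a 21,000xg, 90 min spin was quantified by TMTpro 16plex LC-MS/MS with channel sums equalised. Thermal stability is expressed against control samples, from duplicates, as a log2 fold change.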

By UniProt entry, the sequences of proteins in these tests, tags left out. Where a name states a change or a piece, a line headed by the entry shows the natural chain unless it says otherwise.
UniProt Q9BW71: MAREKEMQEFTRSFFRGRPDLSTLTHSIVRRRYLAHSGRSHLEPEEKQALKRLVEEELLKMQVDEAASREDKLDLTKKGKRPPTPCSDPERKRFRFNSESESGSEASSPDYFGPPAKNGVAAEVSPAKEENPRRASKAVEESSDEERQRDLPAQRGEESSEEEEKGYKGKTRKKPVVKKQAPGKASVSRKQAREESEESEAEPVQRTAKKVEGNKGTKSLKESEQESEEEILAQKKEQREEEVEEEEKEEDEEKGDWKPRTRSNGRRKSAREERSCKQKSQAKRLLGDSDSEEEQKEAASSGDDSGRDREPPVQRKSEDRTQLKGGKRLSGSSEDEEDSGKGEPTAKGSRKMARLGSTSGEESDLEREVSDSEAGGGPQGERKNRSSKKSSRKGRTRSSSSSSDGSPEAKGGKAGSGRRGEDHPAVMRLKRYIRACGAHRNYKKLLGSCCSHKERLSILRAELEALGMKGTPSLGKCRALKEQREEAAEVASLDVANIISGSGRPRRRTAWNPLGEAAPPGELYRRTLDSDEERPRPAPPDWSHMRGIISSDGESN
UniProt P51991: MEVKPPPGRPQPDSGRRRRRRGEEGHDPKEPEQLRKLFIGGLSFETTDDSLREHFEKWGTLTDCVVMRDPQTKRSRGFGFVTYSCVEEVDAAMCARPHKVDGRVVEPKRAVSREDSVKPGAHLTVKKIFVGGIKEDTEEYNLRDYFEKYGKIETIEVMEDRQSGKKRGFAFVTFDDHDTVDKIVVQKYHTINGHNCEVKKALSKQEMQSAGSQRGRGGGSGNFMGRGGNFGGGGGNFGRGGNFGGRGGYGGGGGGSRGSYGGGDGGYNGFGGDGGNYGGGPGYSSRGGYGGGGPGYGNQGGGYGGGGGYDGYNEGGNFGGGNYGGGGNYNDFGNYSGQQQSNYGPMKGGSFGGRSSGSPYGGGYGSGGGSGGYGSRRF
UniProt P08238, whole entry, looked up: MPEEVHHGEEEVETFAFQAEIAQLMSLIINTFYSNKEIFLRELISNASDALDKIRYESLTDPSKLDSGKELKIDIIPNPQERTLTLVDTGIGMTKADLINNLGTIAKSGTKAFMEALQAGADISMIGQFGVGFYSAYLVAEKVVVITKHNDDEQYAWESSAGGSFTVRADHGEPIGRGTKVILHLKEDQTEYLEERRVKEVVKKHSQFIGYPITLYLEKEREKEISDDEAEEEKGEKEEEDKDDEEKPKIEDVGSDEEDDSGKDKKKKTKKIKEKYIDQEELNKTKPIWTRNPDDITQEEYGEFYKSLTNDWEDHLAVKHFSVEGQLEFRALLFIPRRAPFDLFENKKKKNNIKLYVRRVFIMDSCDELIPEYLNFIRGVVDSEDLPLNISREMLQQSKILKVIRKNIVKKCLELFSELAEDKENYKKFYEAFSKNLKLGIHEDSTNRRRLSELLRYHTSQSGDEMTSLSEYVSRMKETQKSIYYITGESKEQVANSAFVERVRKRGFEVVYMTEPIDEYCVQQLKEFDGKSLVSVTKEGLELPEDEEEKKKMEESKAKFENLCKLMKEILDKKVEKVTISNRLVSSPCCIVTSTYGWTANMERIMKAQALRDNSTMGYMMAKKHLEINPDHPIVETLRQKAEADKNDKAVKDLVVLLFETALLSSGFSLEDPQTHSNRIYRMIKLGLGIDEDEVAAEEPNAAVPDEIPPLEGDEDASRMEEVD
UniProt P52597: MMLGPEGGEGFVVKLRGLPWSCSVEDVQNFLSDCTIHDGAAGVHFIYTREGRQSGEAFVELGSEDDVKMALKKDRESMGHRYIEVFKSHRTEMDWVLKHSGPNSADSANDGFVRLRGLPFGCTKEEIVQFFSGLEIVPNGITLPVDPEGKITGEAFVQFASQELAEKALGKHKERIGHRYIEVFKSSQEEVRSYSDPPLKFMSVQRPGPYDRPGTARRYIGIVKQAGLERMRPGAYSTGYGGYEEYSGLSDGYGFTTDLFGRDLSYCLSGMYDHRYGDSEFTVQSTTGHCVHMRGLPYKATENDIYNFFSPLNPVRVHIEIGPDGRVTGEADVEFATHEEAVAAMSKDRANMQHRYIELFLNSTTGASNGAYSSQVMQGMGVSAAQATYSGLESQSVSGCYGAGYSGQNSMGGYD
UniProt Q9NP66: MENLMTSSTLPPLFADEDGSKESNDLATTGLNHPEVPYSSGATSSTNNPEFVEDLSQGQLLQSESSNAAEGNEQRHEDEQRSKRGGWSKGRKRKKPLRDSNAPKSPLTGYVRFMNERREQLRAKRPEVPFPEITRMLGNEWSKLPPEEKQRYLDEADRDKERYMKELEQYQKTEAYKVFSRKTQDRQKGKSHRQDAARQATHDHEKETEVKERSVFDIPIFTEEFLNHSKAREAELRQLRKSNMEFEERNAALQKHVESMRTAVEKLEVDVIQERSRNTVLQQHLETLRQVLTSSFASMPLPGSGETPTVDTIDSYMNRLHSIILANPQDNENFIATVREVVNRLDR
UniProt Q96JB3: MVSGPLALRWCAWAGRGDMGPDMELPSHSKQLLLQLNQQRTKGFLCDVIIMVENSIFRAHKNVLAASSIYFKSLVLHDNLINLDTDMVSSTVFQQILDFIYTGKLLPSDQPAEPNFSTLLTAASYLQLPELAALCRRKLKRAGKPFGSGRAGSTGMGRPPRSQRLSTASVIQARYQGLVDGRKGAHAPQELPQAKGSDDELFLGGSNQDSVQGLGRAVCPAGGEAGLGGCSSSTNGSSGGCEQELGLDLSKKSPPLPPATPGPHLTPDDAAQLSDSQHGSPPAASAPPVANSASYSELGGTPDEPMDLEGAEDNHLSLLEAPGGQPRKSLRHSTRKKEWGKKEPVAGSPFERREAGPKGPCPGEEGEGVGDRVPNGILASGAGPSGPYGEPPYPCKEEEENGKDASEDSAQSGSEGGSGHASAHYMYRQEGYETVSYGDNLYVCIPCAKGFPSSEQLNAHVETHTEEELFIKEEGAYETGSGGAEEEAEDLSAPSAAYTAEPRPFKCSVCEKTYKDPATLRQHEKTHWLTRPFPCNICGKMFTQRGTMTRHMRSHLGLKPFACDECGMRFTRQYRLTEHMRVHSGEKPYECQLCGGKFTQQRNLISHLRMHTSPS
UniProt P23327: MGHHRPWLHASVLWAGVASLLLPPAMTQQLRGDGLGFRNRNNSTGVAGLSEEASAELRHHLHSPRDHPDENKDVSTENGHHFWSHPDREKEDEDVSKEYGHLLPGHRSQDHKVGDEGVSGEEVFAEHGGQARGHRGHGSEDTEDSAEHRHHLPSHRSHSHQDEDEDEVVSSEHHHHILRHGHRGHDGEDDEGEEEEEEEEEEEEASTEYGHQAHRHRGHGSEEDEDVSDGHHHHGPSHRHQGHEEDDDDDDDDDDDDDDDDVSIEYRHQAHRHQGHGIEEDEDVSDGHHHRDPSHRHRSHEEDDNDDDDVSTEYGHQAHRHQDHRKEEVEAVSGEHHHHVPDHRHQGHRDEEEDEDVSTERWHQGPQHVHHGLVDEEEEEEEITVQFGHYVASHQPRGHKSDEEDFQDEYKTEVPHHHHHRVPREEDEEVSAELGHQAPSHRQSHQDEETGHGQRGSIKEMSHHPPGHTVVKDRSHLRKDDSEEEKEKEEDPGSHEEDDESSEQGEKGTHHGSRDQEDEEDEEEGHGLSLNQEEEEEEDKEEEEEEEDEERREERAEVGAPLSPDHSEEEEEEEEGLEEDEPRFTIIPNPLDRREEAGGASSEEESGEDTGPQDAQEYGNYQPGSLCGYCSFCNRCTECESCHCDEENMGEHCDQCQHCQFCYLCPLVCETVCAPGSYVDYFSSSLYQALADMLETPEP

ibrutinib = compound: C=CC(=O)N1CCC[C@@H](n2nc(-c3ccc(Oc4ccccc4)cc3)c3c(N)ncnc32)C1 [ibrutinib]
Procedure, shortened: as §1

[1] = compound: CC(=O)c1cnc2ccc(-c3cc(Cl)c(O)c(Cl)c3)nc2c1N[C@H]1CC[C@H](CN(C)C)CC1
Procedure, shortened: as §1

ralimetinib = compound: CC(C)(C)Cn1c(N)nc2ccc(-c3[nH]c(C(C)(C)C)nc3-c3ccc(F)cc3)nc21 [ralimetinib]
Procedure, shortened: as §1

[2] = compound: CC(C)(O)CC(=O)NCCn1ccc2ncnc(Nc3ccc(Oc4cccc(C(F)(F)F)c4)c(Cl)c3)c21
Procedure, shortened: as §1

[3] = compound: CC(C)C1=C2N=C(C=C(N2N=C1)NCC3=CC=CC=C3)NCCCCCCN
Procedure, shortened: as §1

[4] = compound: CC(C)C[C@@H](C=O)NC(=O)[C@H](CC(C)C)NC(=O)[C@H](CC(C)C)NC(=O)OCc1ccccc1
Procedure, shortened: as §1

pinometostat = compound: CC(C)N(C[C@H]1O[C@@H](n2cnc3c(N)ncnc32)[C@H](O)[C@@H]1O)[C@H]1C[C@@H](CCc2nc3cc(C(C)(C)C)ccc3[nH]2)C1 [pinometostat]
Procedure, shortened: as §1

[5] = compound: CC1=C(C(CC(=O)N1)C2=CC=C(C=C2)C(F)(F)F)C(=O)NC3=C(C=C4C(=C3)C=NN4)F
Procedure, shortened: as §1

[6] = compound: CC1=C(C2=C(C=C1)C(=O)C3=CC=CC=C3N2CCCN)C
Procedure, shortened: as §1

[7] = compound: CC1=C(C=C(C=C1)NC(=O)C2=CC(=CC=C2)C(C)(C)C#N)NC3=CC4=C(C=C3)N=CN(C4=O)C
Procedure, shortened: as §1

[8] = compound: CC1=C(C=C(C=C1)NC(=O)C2=CC(=CC=C2)N(C)C)NC(=O)C3=CC=C(C=C3)O
Procedure, shortened: as §1

[9] = compound: CC1=CC=C(C=C1)SC2=C3C=C(SC3=CN=C2)C(=O)N
Procedure, shortened: as §1

[10] = compound: CC1=NC(=CC=C1)C2=C(N=C(N2)C(C)(C)C)C3=CC4=NC=CN=C4C=C3
Procedure, shortened: as §1

Nexturastat A = compound: CCCCN(Cc1ccc(C(=O)NO)cc1)C(=O)Nc1ccccc1 [Nexturastat A]
Procedure, shortened: as §1

vemurafenib = compound: CCCS(=O)(=O)Nc1ccc(F)c(C(=O)c2c[nH]c3ncc(-c4ccc(Cl)cc4)cc23)c1F [vemurafenib]
Procedure, shortened: as §1

[11] = compound: CCCS(=O)(=O)Nc1ccc(F)c(C(=O)c2c[nH]c3ncc(Cl)cc23)c1F
Procedure, shortened: as §1

[12] = compound: CCCc1cc(C)[nH]c(=O)c1CNC(=O)c1cc(-c2ccnc(N3CCN(C)CC3)c2)cc2c1cnn2C(C)C
Procedure, shortened: as §1

givinostat = compound: CCN(CC)Cc1ccc2cc(COC(=O)Nc3ccc(C(=O)NO)cc3)ccc2c1 [givinostat]
Procedure, shortened: as §1

barasertib = compound: CCN(CCCOc1ccc2c(Nc3cc(CC(=O)Nc4cccc(F)c4)[nH]n3)ncnc2c1)CCOP(=O)(O)O [barasertib]
Procedure, shortened: as §1

Row | Target | log2 fold change (IRAK-1-4 Inhibitor I) | log2 fold change (ibrutinib) | log2 fold change [1] | log2 fold change (ralimetinib) | log2 fold change [2] | log2 fold change [3] | log2 fold change [4] | log2 fold change (pinometostat) | log2 fold change [5] | log2 fold change [6] | log2 fold change [7] | log2 fold change [8] | log2 fold change [9] | log2 fold change [10] | log2 fold change (Nexturastat A) | log2 fold change (vemurafenib) | log2 fold change [11] | log2 fold change [12] | log2 fold change (givinostat) | log2 fold change (barasertib)
1 | HIRIP3 (UniProt Q9BW71) | inactive: 0.015 | inactive: -0.019 | inactive: -0.046 | inactive: -0.056 | inactive: 0.004 | inactive: -0.009 | inactive: 0.023 | inactive: -0.062 | inactive: 0.03 | inactive: -0.003 | inactive: -0.016 | inactive: -0.042 | inactive: 0.011 | inactive: 0.047 | inactive: -0.004 | inactive: 0.019 | inactive: 0.039 | inactive: -0.058 | inactive: 0.042 | inactive: 0.006
2 | HNRNPA3 (UniProt P51991) | inactive: -0.2 | inactive: 0.075 | inactive: 0.176 | inactive: 0.156 | inactive: 0.221 | inactive: 0.057 | inactive: 0.093 | inactive: 0.196 | inactive: -0.045 | inactive: -0.194 | inactive: 0.025 | inactive: 0.021 | inactive: -0.117 | inactive: -0.058 | inactive: 0.153 | inactive: 0 | inactive: -0.031 | inactive: 0.127 | inactive: -0.029 | inactive: -0.198
3 | HSP90AB1 (UniProt P08238) | inactive: 0.024 | inactive: -0.031 | inactive: 0.039 | inactive: -0.014 | inactive: -0.019 | inactive: -0.058 | inactive: 0.007 | inactive: -0.05 | inactive: -0.021 | inactive: -0.015 | inactive: 0.031 | inactive: -0.013 | inactive: 0.013 | inactive: 0.017 | inactive: 0.007 | inactive: 0.022 | inactive: 0.049 | inactive: 0.056 | inactive: -0.04 | inactive: 0.006
4 | HNRNPK isoform 2 (UniProt P61978) | inactive: -0.014 | inactive: -0.014 | inactive: -0.161 | inactive: -0.054 | inactive: -0.025 | active: -0.283 | inactive: 0.003 | inactive: -0.033 | – | inactive: -0.062 | inactive: 0.034 | inactive: 0.004 | inactive: -0.003 | inactive: 0.075 | inactive: 0.022 | inactive: 0.048 | inactive: 0.048 | inactive: -0.031 | inactive: 0.063 | inactive: 0.024
5 | HNRNPF (UniProt P52597) | inactive: -0.143 | inactive: -0.023 | inactive: -0.1 | inactive: 0.098 | inactive: -0.086 | active: -0.279 | inactive: 0.069 | inactive: 0.018 | – | inactive: -0.087 | inactive: 0.076 | inactive: -0.005 | inactive: -0.032 | inactive: -0.017 | inactive: 0.036 | inactive: 0.106 | inactive: 0.101 | inactive: 0.027 | inactive: 0.051 | inactive: 0.047
6 | HMG20A (UniProt Q9NP66) | inactive: -0.05 | inactive: 0.043 | inactive: -0.015 | inactive: 0.275 | inactive: 0.062 | inactive: 0.043 | inactive: -0.405 | inactive: 0.026 | – | inactive: 0.007 | inactive: -0.051 | inactive: -0.009 | inactive: -0.153 | inactive: -0.016 | inactive: 0.033 | inactive: 0.027 | inactive: 0.016 | inactive: 0.149 | inactive: 0.03 | inactive: 0.024
7 | HIC2 (UniProt Q96JB3) | inactive: -0.073 | inactive: 0.123 | inactive: 0.024 | inactive: 0.218 | inactive: 0.065 | inactive: -0.07 | inactive: -0.03 | inactive: 0.143 | – | inactive: 0.088 | inactive: 0.039 | inactive: 0.028 | inactive: -0.005 | inactive: -0.093 | inactive: 0.131 | inactive: 0.009 | inactive: 0.123 | inactive: -0.005 | inactive: -0.035 | inactive: -0.033
8 | HRC (UniProt P23327) | inactive: 0.002 | inactive: 0.003 | inactive: 0.041 | inactive: -0.039 | inactive: 0.132 | inactive: 0.074 | inactive: 0.011 | inactive: 0.019 | – | inactive: -0.033 | inactive: -0.199 | inactive: 0.031 | inactive: 0.008 | inactive: 0.005 | inactive: 0.041 | inactive: -0.044 | inactive: -0.097 | inactive: -0.025 | inactive: -0.059 | inactive: 0.021
